From article PMC8551270 (Scientific Reports, 2021)

Assay: general procedure: Fmoc solid-phase peptide synthesis; Rink amide PS resin, PAL PS resin; Fmoc-Rink amide Tentagel resin; Fmoc-PAL-PS resin (TAMRA peptides); DIC / oxyma pure in NMP; PyAOP/DIPEA for TAMRA
Conditions: whole synthesis, UPLC (Waters BEH C18, H2O/ACN + 0.05% TFA), scale of the general procedure 10 µmol (TAMRA-labelled peptides), approximately 10 mg resin

Substance	final HPLC purity [%]
[Ac, Arg^4, Gln^18,K^ε30(C18diacid-γGlu-2xAdo)]PYY3-36	95.3
[K^ε4(TAMRA)K^ε7(C18diacid-γGlu-2xAdo)]PYY3-36	95.0
[K^ε4(TAMRA)K^ε10(C18diacid-γGlu-2xAdo)]PYY3-36	98.5
[K^ε4(TAMRA)K^ε19(C18diacid-γGlu-2xAdo)]PYY3-36	95.4
[K^ε4(TAMRA)K^ε25(C18diacid-γGlu-2xAdo)]PYY3-36	97.8
[K^ε4(TAMRA)K^ε30(C14diacid-γGlu-2xAdo)]PYY3-36	98.5
[K^ε4(TAMRA)K^ε30(C16diacid-γGlu-2xAdo)]PYY3-36	99.2
[K^ε4(TAMRA)K^ε30(C18diacid-γGlu-2xAdo)]PYY3-36	96.5
[K^ε4(TAMRA)K^ε33(C18diacid-γGlu-2xAdo)]PYY3-36	91.1
[K^ε22(C18diacid-γGlu-2xAdo)]PYY3-36	95.0
[K^ε30(C14diacid-2xAdo)]PYY3-36	97.0
